The supplement of paper PMC10849652
The other results are listed elsewhere or left out.

Amino acid sequences for entries named in this document (tags omitted). A change or cut given only in a name is not applied to a line headed by its entry.
UniProt Q13228: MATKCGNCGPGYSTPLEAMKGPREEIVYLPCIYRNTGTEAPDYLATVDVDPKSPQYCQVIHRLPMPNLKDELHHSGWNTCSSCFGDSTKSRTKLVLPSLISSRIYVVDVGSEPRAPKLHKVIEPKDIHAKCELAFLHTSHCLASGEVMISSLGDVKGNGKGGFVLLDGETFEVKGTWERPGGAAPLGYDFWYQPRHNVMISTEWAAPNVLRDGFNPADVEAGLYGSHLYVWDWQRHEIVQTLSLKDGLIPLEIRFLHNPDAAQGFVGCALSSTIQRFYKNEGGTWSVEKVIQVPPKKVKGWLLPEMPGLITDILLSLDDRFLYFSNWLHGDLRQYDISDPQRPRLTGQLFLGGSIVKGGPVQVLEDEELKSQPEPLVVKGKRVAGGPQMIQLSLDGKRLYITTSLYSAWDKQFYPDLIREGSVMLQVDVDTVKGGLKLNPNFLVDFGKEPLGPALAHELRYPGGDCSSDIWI
UniProt Q99590: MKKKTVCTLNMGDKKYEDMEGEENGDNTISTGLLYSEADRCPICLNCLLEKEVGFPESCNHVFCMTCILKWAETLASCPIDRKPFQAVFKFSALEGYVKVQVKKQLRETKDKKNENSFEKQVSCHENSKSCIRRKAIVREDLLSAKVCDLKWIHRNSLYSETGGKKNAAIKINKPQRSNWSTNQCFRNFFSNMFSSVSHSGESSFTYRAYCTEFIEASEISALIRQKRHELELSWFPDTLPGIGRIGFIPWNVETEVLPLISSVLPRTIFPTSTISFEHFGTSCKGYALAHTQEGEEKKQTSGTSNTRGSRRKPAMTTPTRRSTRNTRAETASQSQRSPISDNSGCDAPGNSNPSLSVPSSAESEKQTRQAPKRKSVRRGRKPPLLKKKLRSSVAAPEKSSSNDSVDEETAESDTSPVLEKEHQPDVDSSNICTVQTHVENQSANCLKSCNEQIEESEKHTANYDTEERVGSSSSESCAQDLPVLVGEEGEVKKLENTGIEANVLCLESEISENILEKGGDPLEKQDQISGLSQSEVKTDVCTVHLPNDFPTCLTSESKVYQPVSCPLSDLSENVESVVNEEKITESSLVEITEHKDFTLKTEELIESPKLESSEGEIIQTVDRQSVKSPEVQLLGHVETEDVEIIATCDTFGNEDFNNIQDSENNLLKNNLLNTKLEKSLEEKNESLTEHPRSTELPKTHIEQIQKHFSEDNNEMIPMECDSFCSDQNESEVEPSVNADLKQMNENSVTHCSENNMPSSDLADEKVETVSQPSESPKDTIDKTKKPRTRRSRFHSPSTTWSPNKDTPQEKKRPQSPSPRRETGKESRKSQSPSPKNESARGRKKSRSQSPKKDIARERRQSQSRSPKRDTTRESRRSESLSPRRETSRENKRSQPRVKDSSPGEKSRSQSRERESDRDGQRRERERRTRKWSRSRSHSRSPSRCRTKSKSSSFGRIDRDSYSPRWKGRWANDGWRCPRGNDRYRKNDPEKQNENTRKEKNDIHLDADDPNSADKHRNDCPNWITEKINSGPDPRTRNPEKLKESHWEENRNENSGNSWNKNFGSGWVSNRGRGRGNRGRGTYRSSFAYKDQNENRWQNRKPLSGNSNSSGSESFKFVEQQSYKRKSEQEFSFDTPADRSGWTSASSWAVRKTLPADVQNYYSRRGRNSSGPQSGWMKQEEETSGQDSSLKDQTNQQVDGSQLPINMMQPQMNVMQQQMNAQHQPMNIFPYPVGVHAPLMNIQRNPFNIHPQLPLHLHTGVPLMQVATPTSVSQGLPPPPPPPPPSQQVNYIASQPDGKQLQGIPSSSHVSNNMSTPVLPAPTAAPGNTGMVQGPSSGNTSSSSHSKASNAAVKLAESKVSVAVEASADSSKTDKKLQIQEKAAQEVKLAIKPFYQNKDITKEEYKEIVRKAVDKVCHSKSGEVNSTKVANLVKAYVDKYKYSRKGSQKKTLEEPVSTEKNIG
UniProt O75396: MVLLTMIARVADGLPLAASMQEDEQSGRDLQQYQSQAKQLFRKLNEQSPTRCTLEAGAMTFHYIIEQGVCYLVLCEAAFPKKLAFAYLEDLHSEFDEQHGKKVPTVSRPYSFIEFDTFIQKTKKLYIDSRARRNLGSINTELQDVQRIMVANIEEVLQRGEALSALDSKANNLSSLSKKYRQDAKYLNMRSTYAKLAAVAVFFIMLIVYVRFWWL
UniProt Q96I15: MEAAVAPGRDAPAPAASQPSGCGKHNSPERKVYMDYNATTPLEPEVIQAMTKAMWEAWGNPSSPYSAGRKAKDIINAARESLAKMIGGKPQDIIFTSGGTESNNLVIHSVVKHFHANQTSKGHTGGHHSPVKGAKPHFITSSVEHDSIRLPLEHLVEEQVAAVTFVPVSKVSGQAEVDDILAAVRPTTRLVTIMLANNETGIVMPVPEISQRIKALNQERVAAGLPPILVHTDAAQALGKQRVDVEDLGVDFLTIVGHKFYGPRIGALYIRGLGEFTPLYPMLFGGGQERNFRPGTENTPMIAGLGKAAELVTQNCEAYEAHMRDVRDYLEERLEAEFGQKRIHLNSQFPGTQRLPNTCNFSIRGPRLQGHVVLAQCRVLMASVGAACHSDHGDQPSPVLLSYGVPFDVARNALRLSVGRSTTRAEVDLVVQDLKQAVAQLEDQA
UniProt Q96IW7: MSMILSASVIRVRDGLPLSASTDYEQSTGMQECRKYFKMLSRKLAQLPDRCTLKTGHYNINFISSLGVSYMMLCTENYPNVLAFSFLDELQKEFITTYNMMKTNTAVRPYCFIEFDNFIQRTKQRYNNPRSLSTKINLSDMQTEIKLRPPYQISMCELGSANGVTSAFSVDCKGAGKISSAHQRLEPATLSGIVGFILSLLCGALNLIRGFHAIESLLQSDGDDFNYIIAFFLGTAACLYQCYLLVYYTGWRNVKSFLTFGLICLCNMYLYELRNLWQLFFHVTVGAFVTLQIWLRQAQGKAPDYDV
UniProt Q99719: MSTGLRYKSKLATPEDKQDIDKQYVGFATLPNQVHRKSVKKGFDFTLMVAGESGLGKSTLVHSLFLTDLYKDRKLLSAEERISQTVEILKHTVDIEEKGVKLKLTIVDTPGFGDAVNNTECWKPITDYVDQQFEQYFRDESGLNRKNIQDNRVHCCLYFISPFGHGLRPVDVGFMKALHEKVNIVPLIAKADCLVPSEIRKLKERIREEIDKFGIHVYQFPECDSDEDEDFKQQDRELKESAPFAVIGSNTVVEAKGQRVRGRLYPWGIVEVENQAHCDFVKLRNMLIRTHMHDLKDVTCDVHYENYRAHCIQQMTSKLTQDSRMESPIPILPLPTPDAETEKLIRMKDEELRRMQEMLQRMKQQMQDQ
UniProt Q96LD8: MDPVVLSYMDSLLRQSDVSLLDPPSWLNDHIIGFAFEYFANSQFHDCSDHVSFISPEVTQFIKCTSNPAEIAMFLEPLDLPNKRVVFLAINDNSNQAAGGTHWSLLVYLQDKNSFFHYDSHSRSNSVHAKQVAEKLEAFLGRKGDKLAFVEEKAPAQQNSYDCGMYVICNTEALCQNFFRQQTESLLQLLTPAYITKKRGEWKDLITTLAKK
UniProt Q96BU1: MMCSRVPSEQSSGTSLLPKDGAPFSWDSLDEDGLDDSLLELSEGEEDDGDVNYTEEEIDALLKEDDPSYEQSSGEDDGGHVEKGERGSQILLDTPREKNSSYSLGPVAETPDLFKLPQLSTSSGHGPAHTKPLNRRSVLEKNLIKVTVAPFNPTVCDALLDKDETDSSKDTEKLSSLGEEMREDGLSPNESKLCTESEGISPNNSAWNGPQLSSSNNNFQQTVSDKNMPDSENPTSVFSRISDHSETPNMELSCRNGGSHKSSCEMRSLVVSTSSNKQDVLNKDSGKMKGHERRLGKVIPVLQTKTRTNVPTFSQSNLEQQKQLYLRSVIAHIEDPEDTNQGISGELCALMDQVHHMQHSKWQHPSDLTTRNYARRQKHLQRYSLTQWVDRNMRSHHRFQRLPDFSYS
UniProt O95486: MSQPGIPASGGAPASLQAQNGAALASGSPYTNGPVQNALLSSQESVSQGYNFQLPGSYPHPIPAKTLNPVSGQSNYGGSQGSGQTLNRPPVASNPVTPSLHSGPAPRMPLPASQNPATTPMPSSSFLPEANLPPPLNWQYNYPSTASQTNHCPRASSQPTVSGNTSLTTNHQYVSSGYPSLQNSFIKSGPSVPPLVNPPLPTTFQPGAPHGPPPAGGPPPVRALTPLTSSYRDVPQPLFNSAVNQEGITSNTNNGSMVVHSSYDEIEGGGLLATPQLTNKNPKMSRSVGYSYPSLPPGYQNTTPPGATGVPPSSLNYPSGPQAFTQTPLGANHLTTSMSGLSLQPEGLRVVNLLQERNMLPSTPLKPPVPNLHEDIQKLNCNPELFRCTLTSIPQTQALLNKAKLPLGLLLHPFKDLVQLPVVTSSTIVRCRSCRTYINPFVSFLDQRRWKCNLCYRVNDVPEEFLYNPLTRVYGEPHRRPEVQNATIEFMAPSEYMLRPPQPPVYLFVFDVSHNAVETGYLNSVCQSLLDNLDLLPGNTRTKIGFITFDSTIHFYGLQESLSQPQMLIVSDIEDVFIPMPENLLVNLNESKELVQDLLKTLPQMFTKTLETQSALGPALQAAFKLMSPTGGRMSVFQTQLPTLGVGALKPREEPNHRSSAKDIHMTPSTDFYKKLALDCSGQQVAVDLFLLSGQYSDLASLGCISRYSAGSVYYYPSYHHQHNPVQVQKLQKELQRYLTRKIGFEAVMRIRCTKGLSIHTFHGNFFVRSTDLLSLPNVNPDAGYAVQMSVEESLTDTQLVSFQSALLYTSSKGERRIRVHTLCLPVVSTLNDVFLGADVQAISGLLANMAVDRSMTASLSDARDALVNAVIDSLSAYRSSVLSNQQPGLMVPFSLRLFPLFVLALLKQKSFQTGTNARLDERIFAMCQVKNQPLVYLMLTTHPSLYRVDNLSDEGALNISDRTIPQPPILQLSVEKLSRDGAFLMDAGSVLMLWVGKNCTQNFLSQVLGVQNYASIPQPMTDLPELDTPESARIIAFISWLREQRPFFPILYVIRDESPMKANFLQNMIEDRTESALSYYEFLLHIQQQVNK
UniProt Q9NRP4: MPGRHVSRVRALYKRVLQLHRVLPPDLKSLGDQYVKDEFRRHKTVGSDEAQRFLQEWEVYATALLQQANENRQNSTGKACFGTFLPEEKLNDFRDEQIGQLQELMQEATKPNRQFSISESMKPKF
UniProt Q96GA7: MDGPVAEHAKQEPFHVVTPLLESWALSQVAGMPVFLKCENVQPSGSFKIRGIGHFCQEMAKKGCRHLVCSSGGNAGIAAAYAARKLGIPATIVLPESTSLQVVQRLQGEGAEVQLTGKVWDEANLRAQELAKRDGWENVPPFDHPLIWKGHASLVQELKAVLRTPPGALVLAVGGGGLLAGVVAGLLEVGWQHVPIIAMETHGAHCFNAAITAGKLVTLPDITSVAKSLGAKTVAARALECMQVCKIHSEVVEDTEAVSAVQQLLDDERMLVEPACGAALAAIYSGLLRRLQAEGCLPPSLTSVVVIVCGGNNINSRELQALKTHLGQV
UniProt Q9NPR2: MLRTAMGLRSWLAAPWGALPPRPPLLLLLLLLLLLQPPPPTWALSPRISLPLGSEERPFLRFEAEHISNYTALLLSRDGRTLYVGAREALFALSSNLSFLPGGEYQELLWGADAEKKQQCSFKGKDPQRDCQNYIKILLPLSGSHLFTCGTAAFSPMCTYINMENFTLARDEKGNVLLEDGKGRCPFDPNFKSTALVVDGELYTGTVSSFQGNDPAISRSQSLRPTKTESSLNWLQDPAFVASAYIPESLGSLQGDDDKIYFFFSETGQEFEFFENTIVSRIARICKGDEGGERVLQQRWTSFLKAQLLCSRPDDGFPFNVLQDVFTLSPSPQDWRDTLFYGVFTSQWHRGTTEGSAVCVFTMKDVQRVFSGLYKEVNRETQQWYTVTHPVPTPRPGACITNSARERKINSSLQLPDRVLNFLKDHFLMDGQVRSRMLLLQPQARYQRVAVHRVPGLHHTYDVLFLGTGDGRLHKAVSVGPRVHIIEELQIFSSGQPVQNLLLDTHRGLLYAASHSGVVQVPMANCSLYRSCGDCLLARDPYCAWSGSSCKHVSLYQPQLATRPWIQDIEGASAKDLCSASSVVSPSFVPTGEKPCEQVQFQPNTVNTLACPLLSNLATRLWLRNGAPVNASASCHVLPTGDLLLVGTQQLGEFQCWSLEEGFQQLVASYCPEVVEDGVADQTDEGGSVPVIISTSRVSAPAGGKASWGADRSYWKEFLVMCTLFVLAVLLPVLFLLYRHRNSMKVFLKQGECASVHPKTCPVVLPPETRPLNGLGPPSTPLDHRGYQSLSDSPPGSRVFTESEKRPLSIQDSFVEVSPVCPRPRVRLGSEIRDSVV

Experiments:
Experiment in all cases: log2 fold change, soluble protein after heating vs DMSO (PISA); higher = thermal stabilisation; K562 lysate, 10 uM; active = over 0.2 and 3.5 SD of the protein, either way, in both replicates (recomputed)
[1] = compound: C1=CC=C(C=C1)[C@H](COC2=CC3=C(C=C2)NC(=O)N3)NC(=O)C4=CC=CN(C4=O)CC5=CC(=C(C=C5)F)F
Outline: (§1)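 Pellets of K562 cells were dounce-homogenised in PBS pH 7.4 with 1 mM MgCl2, and the crude extract was held at 1 mg/mL protein for a 30 min treatment with 10 μM compound. Aliquots were heated for 3 min over 48°C-58°C and pooled before NP-40 was added to 0.5% at 4°C. The supernatant from 21,000xg for 90 min was quantified by TMTpro 16plex LC-MS/MS with channel sums equalised. Values are reported from duplicates as log-two fold change in thermal stability relative to solvent controls.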

[2] = compound: CC1=C(SC2=C1C(=N[C@H](C3=NN=C(N32)C)CC(=O)N)C4=CC=C(C=C4)Cl)C
Outline: as §1

[3] = compound: CC1=C2C(=CC=C1)N=C(N(C2=O)C3=CC=CC=C3C)CN4C=NC5=C(N=CN=C54)N
Outline: as §1

[4] = compound: Cc1sc2c(c1C)C(c1ccc(Cl)cc1)=N[C@@H](CC(=O)OC(C)(C)C)c1nnc(C)n1-2
Outline: as §1

[5] = compound: c1ccc([C@@H]2C[C@H]2NC2CCNCC2)cc1
Outline: as §1

[6] = compound: C#Cc1cccc(Nc2ncnc3cc(OCCOC)c(OCCOC)cc23)c1 [erlotinib]
Outline: as §1

[7] = compound: C1=CC(=CC=C1C2=NC3=C(N2)C=C(C=C3)C(=O)N)OC4=CC=C(C=C4)Cl
Outline: as §1

[8] = compound: C1=CC2=NC=CN=C2C=C1/C=C/3\C(=O)NC(=O)S3
Outline: as §1

[9] = compound: C1=CC=C(C=C1)C2=NC(=C(N2)C3=CC=NC=C3)C4=CC(=C(C=C4)Cl)O
Outline: as §1

[10] = compound: C1COCCN1CCN2C3=CC=CC=C3N=C2NC(=O)C4=CC(=CC=C4)[N+](=O)[O-] [IRAK-1-4 Inhibitor I]
Outline: as §1

[11] = compound: C=CC(=O)N1CCC[C@@H](n2nc(-c3ccc(Oc4ccccc4)cc3)c3c(N)ncnc32)C1 [ibrutinib]
Outline: as §1

[12] = compound: CC(=O)c1cnc2ccc(-c3cc(Cl)c(O)c(Cl)c3)nc2c1N[C@H]1CC[C@H](CN(C)C)CC1
Outline: as §1

[13] = compound: CC(C)(C)Cn1c(N)nc2ccc(-c3[nH]c(C(C)(C)C)nc3-c3ccc(F)cc3)nc21 [ralimetinib]
Outline: as §1

[14] = compound: CC(C)(O)CC(=O)NCCn1ccc2ncnc(Nc3ccc(Oc4cccc(C(F)(F)F)c4)c(Cl)c3)c21
Outline: as §1

[15] = compound: CC(C)C1=C2N=C(C=C(N2N=C1)NCC3=CC=CC=C3)NCCCCCCN
Outline: as §1

[16] = compound: CC1=C(C(CC(=O)N1)C2=CC=C(C=C2)C(F)(F)F)C(=O)NC3=C(C=C4C(=C3)C=NN4)F
Outline: as §1

[17] = compound: CC1=C(C2=C(C=C1)C(=O)C3=CC=CC=C3N2CCCN)C
Outline: as §1

[18] = compound: CC1=C(C=C(C=C1)NC(=O)C2=CC(=CC=C2)N(C)C)NC(=O)C3=CC=C(C=C3)O
Outline: as §1

[19] = compound: CC1=CC=C(C=C1)SC2=C3C=C(SC3=CN=C2)C(=O)N
Outline: as §1

[20] = compound: CCCS(=O)(=O)Nc1ccc(F)c(C(=O)c2c[nH]c3ncc(Cl)cc23)c1F
Outline: as §1

[21] = compound: CCN(CCCOc1ccc2c(Nc3cc(CC(=O)Nc4cccc(F)c4)[nH]n3)ncnc2c1)CCOP(=O)(O)O [barasertib]
Outline: as §1

[22] = compound: CC[C@@H]1C(=O)N(C)c2cnc(Nc3ccc(C(=O)N[C@H]4CC[C@H](N5CCN(CC6CC6)CC5)CC4)cc3OC)nc2N1C(C)C [volasertib]
Outline: as §1

[23] = compound: CCn1c(C(=O)N(C2CC2)C2CC2)cc2c3c(ncn3C)c(Nc3cc(C)n(C)n3)nc21
Outline: as §1

[24] = compound: CCn1cc(-c2ccnc3[nH]c(-c4cccc(CN(C)C)c4)cc23)c(-c2ccc(NC(=O)N(C)C)cc2)n1
Outline: as §1

[25] = compound: CN1CCC(CNc2ccc3ncc(-c4cccc(OC(F)(F)F)c4)n3n2)CC1
Outline: as §1

[26] = compound: CN1CCN(CCOc2cc(OC3CCOCC3)c3c(Nc4c(Cl)ccc5c4OCO5)ncnc3c2)CC1 [saracatinib]
Outline: as §1

[27] = compound: CN1CC[C@H](c2c(O)cc(O)c3c(=O)cc(-c4ccccc4Cl)oc23)[C@H](O)C1 [alvocidib]
Outline: as §1

[28] = compound: CN1CCc2c(c3ccccc3n2Cc2ccc(C(=O)NO)cc2)C1 [Tubastatin A]
Outline: as §1

[29] = compound: CNC(=O)C1=CC=CC=C1NC2=NC(=NC=C2Cl)NC3=C(C=C(C=C3)N4CCOCC4)OC
Outline: as §1

[30] = compound: CNc1nc(-c2ccc3c(N)n[nH]c3c2)cc(N2C[C@@H](C(=O)NC3CCCCC3)CC[C@H]2C)n1
Outline: as §1

[31] = compound: COc1cc(Nc2ncc3c(n2)-c2ccc(Cl)cc2C(c2c(F)cccc2OC)=NC3)ccc1C(=O)O [alisertib]
Outline: as §1

[32] = compound: COc1cc2nc(-c3cc(F)ccc3O)nc(N[C@@H]3CNC[C@H]3C(C)(C)O)c2cc1OC
Outline: as §1

[33] = compound: COc1cc2ncnc(Nc3ccc(F)c(Cl)c3)c2cc1OCCCN1CCOCC1 [gefitinib]
Outline: as §1

[34] = compound: CS(=O)(=O)CCNCc1ccc(-c2ccc3ncnc(Nc4ccc(OCc5cccc(F)c5)c(Cl)c4)c3c2)o1 [lapatinib]
Outline: as §1

[35] = compound: CS(=O)(=O)N1CCN(Cc2cc3nc(-c4cccc5[nH]ncc45)nc(N4CCOCC4)c3s2)CC1 [pictilisib]
Outline: as §1

[36] = compound: C[C@H](C1=CC=C(C=C1)C(=O)NC2=C3C=CNC3=NC=C2)N
Outline: as §1

[37] = compound: C[C@H](Nc1ncnc2nc[nH]c12)c1cc2cccc(Cl)c2c(=O)n1-c1ccccc1 [duvelisib]
Outline: as §1

[38] = compound: Cc1cc(Nc2cc(CN3CCOCC3)c3nc(C)c(Cc4ccc(Cl)cc4F)n3n2)n[nH]1 [gandotinib]
Outline: as §1

[39] = compound: Cc1ccc(NC(=O)c2ccc(CN3CC[C@H](N(C)C)C3)c(C(F)(F)F)c2)cc1Nc1nccc(-c2cncnc2)n1 [bafetinib]
Outline: as §1

[40] = compound: Cc1cccc(CC(=O)N2CCc3c2ccc(-c2cn(C)c4ncnc(N)c24)c3F)n1
Outline: as §1

[41] = compound: Cc1cn(-c2cc(NC(=O)c3ccc(C)c(Nc4nccc(-c5cccnc5)n4)c3)cc(C(F)(F)F)c2)cn1 [nilotinib]
Outline: as §1

[42] = compound: Cc1nc(Nc2n[nH]c3c2CN(C(=O)N[C@H](CN(C)C)c2ccccc2)C3(C)C)c2sccc2n1
Outline: as §1

[43] = compound: Cc1nc(Nc2ncc(C(=O)Nc3c(C)cccc3Cl)s2)cc(N2CCN(CCO)CC2)n1 [dasatinib]
Outline: as §1

[44] = compound: Cc1ncc(-c2ccnc(Nc3ccc(S(C)(=O)=O)cc3)n2)n1C(C)C
Outline: as §1

[45] = compound: Cn1cc(-c2ccc3c(c2)CCN3C(=O)Cc2cccc(C(F)(F)F)c2)c2c(N)ncnc21
Outline: as §1

[46] = compound: Cn1cncc1[C@@](N)(c1ccc(Cl)cc1)c1ccc2c(c1)c(-c1cccc(Cl)c1)cc(=O)n2C [tipifarnib]
Outline: as §1

[47] = compound: NC(=O)c1cnc(N[C@@H]2CCCC[C@@H]2N)nc1Nc1cccc(-n2nccn2)c1
Outline: as §1

[48] = compound: NC1(c2ccc(-c3nc4ccn5c(=O)[nH]nc5c4cc3-c3ccccc3)cc2)CCC1
Outline: as §1

[49] = compound: O=C(CCCCCCC(=O)Nc1ccccc1)NO [vorinostat]
Outline: as §1

[50] = compound: O=C(O)c1ccc2c(c1)nc(Nc1cccc(Cl)c1)c1ccncc12 [silmitasertib]
Outline: as §1

Measured: log2 fold change

SELENBP1 isoform 4 (UniProt Q13228)
inactive: [1] 0.014 | [2] -0.006 | [3] 0.014 | [4] 0.019 | [5] 0.025

SCAF11 (UniProt Q99590)
inactive: [1] 0.072 | [2] -0.016 | [3] 0.032 | [4] -0.018 | [5] -0.044

SEC22B (UniProt O75396)
inactive: [1] -0.017 | [2] 0.016 | [3] 0.029 | [4] 0.037 | [5] 0.037

SCLY (UniProt Q96I15)
inactive: [1] 0.026 | [2] 0.039 | [3] 0.043 | [4] 0.032 | [5] -0.03

SEC22A (UniProt Q96IW7)
inactive: [1] 0.399 | [2] -0.178

SEPTIN5 (UniProt Q99719)
inactive: [1] 0.019 | [2] -0.023 | [3] 0.004 | [4] 0.01 | [5] 0.059

SENP8 (UniProt Q96LD8)
inactive: [1] -0.011 | [2] -0.045 | [3] -0.259 | [4] -0.015

S100PBP (UniProt Q96BU1)
inactive: [1] -0.065 | [2] -0.03 | [3] -0.222 | [4] -0.053 | [5] -0.108

SEC24A (UniProt O95486)
inactive: [1] 0.022 | [2] -0.009 | [3] 0.009 | [4] -0.008 | [5] 0.073

SDHAF3 (UniProt Q9NRP4)
inactive: [1] -0.027 | [2] 0.055 | [3] 0.022 | [4] 0.036 | [5] 0.025

2 records drawn at random from those above, as already listed:
SENP8 (UniProt Q96LD8)
inactive: [1] -0.011 | [2] -0.045 | [3] -0.259 | [4] -0.015

SEC24A (UniProt O95486)
inactive: [1] 0.022 | [2] -0.009 | [3] 0.009 | [4] -0.008 | [5] 0.073

(list continues)

SDSL (UniProt Q96GA7)
inactive: [1] -0.087 | [2] 0.016 | [3] -0.012 | [4] -0.021 | [5] -0.011

SEMA4B (UniProt Q9NPR2)
inactive: [1] -0.097 | [2] 0.29 | [3] 0.068 | [4] 0.048 | [5] -0.051

SARS1 (UniProt Q5T5C7)
inactive: [6] -0.008 | [7] -0.061 | [8] -0.014 | [9] 0.282 | [1] -0.091 | [10] -0.062 | [11] 0.026 | [12] 0.006 | [13] 0.014 | [14] 0.041 | [15] -0.095 | [16] -0.008 | [17] 0.022 | [18] -0.167 | [2] 0.141 | [19] 0.032 | [20] 0.032 | [21] 0.006 | [22] -0.076 | [23] 0.136 | [24] 0.072 | [25] -0.041 | [26] -0.243 | [27] 0.082 | [28] 0.211 | [29] -0.063 | [30] -0.074 | [31] -0.172 | [32] -0.066 | [33] -0.093 | [34] -0.012 | [35] -0.103 | [36] 0.194 | [37] 0.143 | [38] 0.036 | [39] -0.014 | [40] -0.162 | [41] 0.411 | [42] 0.097 | [43] -0.001 | [44] -0.29 | [4] 0.024 | [45] 0.105 | [46] -0.095 | [47] -0.034 | [48] 0.123 | [49] -0.14 | [50] 0.132 | [5] -0.036
